# Reference: PubChem BioAssay AID504793 (Drosophila RNAi Screening Center, 2011)
# Screen: 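Knock-downs allowing continued mitosis even though DNA is damaged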 (primary screen)
# System: Drosophila S2R+ cells
# Knock-down reagent: long dsRNA against Drosophila genes, about 0.25 µg dsRNA per well
# Timing: 4 days of dsRNA, then 4 hours of drug before read-out
# Treatment: doxorubicin 0.5 µM for 4 hours to cause double-strand breaks, in cells also given a low, harmless dose of dsRNA against nbs to sensitise the assay
# Measurement: 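Mitotic index as the number of phospho-histone H3-positive cells in each well following doxorubicin, given as raw counts without normalisation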
# Reading the numbers: mitotic cells: higher = more cells in mitosis, weaker G2 arrest
# Active means: 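a call needs confirmation in secondary tests, with other dsRNAs and a check of mitotic timing without damage, not just a high primary count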
# Calls: active = confirmed in follow-up tests; inactive = not confirmed
# In all, the deposit lists about 23,000 reagents; shown is an unselected part of those with a known target gene and a result. Over the whole deposit, 62 (0.27%) were called active. 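Calls come from follow-up tests whose scores are not deposited, so confirmed genes may have low counts here; counts are not normalised per plate.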 Raw values are not corrected between plates. Reagents against one gene are numbered here. Names joined by + are all predicted targets of the reagent. Reagent sequences are not shown.
target,reagent no.,"mitotic cells, replicate 1","mitotic cells, replicate 2",Outcome
CG7248,1,6,,inactive
CG5612,1,8,,inactive
CG31230,1,4,,inactive
CG31230,2,9,,inactive
mri,1,6,,inactive
mri,2,6,,inactive
Rpt4,1,83,,inactive
Pdk1,1,8,,inactive
Pdk1,2,9,,inactive
CG13295,1,1,,inactive
san,1,14,,inactive
CG11664,1,14,,inactive
O-fut1,1,3,,inactive
O-fut1,2,7,,inactive
Nup153,1,5,9,inactive
fit,1,10,,inactive
CG42583,1,10,,inactive
CG42583,2,3,,inactive
sas,1,13,,inactive

Continued, starting with the last 5 of the part before.
target,reagent no.,"mitotic cells, replicate 1","mitotic cells, replicate 2",Outcome
Nup153,1,5,9,inactive
fit,1,10,,inactive
CG42583,1,10,,inactive
CG42583,2,3,,inactive
sas,1,13,,inactive
GlcAT-I,1,4,,inactive
Gmppa,1,5,,inactive
Gmppa,2,9,,inactive
CG31441,1,9,,inactive
CG31441,2,8,,inactive
5-HT2A,1,10,,inactive
PDZ-GEF,1,5,,inactive
CG31872,1,3,,inactive
CG31872,2,6,,inactive
CG30379,1,4,,inactive
CG9673,1,4,,inactive
CG13305,1,5,,inactive
pain,1,7,,inactive
pain,2,8,,inactive
Dic61B,1,1,,inactive
CG40005 (retired record) + cta,1,7,,inactive
Gr93c,1,12,,inactive
rsh,1,4,,inactive
Polr3B,1,11,,inactive
cactin,1,3,,inactive
RecQ5,1,3,,inactive
RpL10Ab,1,11,,inactive
RpL10Ab,2,8,,inactive
Cep97,1,4,,inactive
Alh,1,9,,inactive
Alh,2,2,,inactive
Alh,3,6,,inactive
Alh,4,5,,inactive
